From PMC9141838
Where two headings read alike, the source gives them in different places. Results are given in words; binding and its absence hold for the method and conditions named. Binding seen in cells or lysates may run through a third protein. A yes stands for co-enrichment or nearness to the bait. Other partners may have been found. Tags and fused reporters may be left off the sequences shown. Values belong to the molecule of their own block, whether it stands above or below them.

Sequences of proteins named here, by UniProt entry; tags and fusion partners are left off.
UniProt Q9BUQ8: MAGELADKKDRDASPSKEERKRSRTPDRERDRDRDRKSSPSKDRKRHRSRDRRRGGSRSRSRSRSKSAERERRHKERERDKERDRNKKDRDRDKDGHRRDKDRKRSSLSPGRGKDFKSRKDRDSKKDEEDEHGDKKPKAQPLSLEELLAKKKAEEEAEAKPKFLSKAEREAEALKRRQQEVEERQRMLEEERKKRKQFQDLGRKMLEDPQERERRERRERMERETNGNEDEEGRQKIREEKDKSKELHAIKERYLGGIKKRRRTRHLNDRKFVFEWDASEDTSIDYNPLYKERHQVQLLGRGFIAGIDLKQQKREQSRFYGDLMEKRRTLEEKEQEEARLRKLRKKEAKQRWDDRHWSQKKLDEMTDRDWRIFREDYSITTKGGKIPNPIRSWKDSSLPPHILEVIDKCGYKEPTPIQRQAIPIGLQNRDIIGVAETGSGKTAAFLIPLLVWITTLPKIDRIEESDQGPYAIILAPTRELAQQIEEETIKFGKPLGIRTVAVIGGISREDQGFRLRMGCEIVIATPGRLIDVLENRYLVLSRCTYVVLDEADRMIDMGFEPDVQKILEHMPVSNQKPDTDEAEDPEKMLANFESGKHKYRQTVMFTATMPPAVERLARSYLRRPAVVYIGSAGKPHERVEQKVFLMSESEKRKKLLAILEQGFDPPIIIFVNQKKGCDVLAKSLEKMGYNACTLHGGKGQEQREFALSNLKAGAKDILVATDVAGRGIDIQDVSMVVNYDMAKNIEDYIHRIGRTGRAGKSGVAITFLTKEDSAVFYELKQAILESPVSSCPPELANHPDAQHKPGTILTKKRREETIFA

Assays:
[1] = biological target: T1, Flag-tagged USP39 (ubiquitin-specific protease 39) (human) (UniProt Q53GS9)
T1 sequence: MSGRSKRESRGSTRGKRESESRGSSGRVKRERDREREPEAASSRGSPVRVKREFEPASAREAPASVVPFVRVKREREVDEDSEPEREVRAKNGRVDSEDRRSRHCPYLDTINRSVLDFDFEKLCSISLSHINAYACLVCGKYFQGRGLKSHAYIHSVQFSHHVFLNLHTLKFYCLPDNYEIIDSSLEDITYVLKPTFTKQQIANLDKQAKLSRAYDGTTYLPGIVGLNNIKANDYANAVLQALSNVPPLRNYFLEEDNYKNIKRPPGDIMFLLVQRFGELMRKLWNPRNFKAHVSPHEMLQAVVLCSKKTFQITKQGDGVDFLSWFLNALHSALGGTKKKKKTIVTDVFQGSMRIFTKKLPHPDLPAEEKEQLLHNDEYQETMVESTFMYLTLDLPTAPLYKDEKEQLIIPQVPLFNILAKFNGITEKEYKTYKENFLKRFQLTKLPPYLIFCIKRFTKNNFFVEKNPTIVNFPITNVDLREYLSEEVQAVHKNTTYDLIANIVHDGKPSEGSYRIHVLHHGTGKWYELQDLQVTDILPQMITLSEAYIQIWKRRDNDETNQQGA

[2] = biological target: T1, Flag-tagged USP39 (ubiquitin-specific protease 39) (human); remark: listed apart in the source

Molecule: DDX23 (from UniProt Q9BUQ8 1-820)
binding [1]: binds

B2: PRP6 (protein, UniProt O94906 1-941)
chain: MNKKKKPFLGMPAPLGYVPGLGRGATGFTTRSDIGPARDANDPVDDRHAPPGKRTVGDQMKKNQAADDDDEDLNDTNYDEFNGYAGSLFSSGPYEKDDEEADAIYAALDKRMDERRKERREQREKEEIEKYRMERPKIQQQFSDLKRKLAEVTEEEWLSIPEVGDARNKRQRNPRYEKLTPVPDSFFAKHLQTGENHTSVDPRQTQFGGLNTPYPGGLNTPYPGGMTPGLMTPGTGELDMRKIGQARNTLMDMRLSQVSDSVSGQTVVDPKGYLTDLNSMIPTHGGDINDIKKARLLLKSVRETNPHHPPAWIASARLEEVTGKLQVARNLIMKGTEMCPKSEDVWLEAARLQPGDTAKAVVAQAVRHLPQSVRIYIRAAELETDIRAKKRVLRKALEHVPNSVRLWKAAVELEEPEDARIMLSRAVECCPTSVELWLALARLETYENARKVLNKARENIPTDRHIWITAAKLEEANGNTQMVEKIIDRAITSLRANGVEINREQWIQDAEECDRAGSVATCQAVMRAVIGIGIEEEDRKHTWMEDADSCVAHNALECARAIYAYALQVFPSKKSVWLRAAYFEKNHGTRESLEALLQRAVAHCPKAEVLWLMGAKSKWLAGDVPAARSILALAFQANPNSEEIWLAAVKLESENDEYERARRLLAKARSSAPTARVFMKSVKLEWVQDNIRAAQDLCEEALRHYEDFPKLWMMKGQIEEQKEMMEKAREAYNQGLKKCPHSTPLWLLLSRLEEKIGQLTRARAILEKSRLKNPKNPGLWLESVRLEYRAGLKNIANTLMAKALQECPNSGILWSEAIFLEARPQRRTKSVDALKKCEHDPHVLLAVAKLFWSQRKITKAREWFHRTVKIDSDLGDAWAFFYKFELQHGTEEQQEEVRKRCESAEPRHGELWCAVSKDIANWQKKIGDILRLVAGRIKNTF
binding [2]: binds

Second part, the molecule after the results:

binding [2]: binds
B1: PRPF3 (protein, UniProt O43395 1-683)
chain: MALSKRELDELKPWIEKTVKRVLGFSEPTVVTAALNCVGKGMDKKKAADHLKPFLDDSTLRFVDKLFEAVEEGRSSRHSKSSSDRSRKRELKEVFGDDSEISKESSGVKKRRIPRFEEVEEEPEVIPGPPSESPGMLTKLQIKQMMEAATRQIEERKKQLSFISPPTPQPKTPSSSQPERLPIGNTIQPSQAATFMNDAIEKARKAAELQARIQAQLALKPGLIGNANMVGLANLHAMGIAPPKVELKDQTKPTPLILDEQGRTVDATGKEIELTHRMPTLKANIRAVKREQFKQQLKEKPSEDMESNTFFDPRVSIAPSQRQRRTFKFHDKGKFEKIAQRLRTKAQLEKLQAEISQAARKTGIHTSTRLALIAPKKELKEGDIPEIEWWDSYIIPNGFDLTEENPKREDYFGITNLVEHPAQLNPPVDNDTPVTLGVYLTKKEQKKLRRQTRREAQKELQEKVRLGLMPPPEPKVRISNLMRVLGTEAVQDPTKVEAHVRAQMAKRQKAHEEANAARKLTAEQRKVKKIKKLKEDISQGVHISVYRVRNLSNPAKKFKIEANAGQLYLTGVVVLHKDVNVVVVEGGPKAQKKFKRLMLHRIKWDEQTSNTKGDDDEESDEEAVKKTNKCVLVWEGTAKDRSFGEMKFKQCPTENMAREHFKKHGAEHYWDLALSESVLESTD

binding [1]: binds
B3: SART1 (protein, UniProt O43290 1-800)
chain: MGSSKKHRGEKEAAGTTAAAGTGGATEQPPRHREHKKHKHRSGGSGGSGGERRKRSRERGGERGSGRRGAEAEARSSTHGRERSQAEPSERRVKREKRDDGYEAAASSKTSSGDASSLSIEETNKLRAKLGLKPLEVNAIKKEAGTKEEPVTADVINPMALRQREELREKLAAAKEKRLLNQKLGKIKTLGEDDPWLDDTAAWIERSRQLQKEKDLAEKRAKLLEEMDQEFGVSTLVEEEFGQRRQDLYSARDLQGLTVEHAIDSFREGETMILTLKDKGVLQEEEDVLVNVNLVDKERAEKNVELRKKKPDYLPYAEDESVDDLAQQKPRSILSKYDEELEGERPHSFRLEQGGTADGLRERELEEIRAKLRLQAQSLSTVGPRLASEYLTPEEMVTFKKTKRRVKKIRKKEKEVVVRADDLLPLGDQTQDGDFGSRLRGRGRRRVSEVEEEKEPVPQPLPSDDTRVENMDISDEEEGGAPPPGSPQVLEEDEAELELQKQLEKGRRLRQLQQLQQLRDSGEKVVEIVKKLESRQRGWEEDEDPERKGAIVFNATSEFCRTLGEIPTYGLAGNREEQEELMDFERDEERSANGGSESDGEENIGWSTVNLDEEKQQQDFSASSTTILDEEPIVNRGLAAALLLCQNKGLLETTVQKVARVKAPNKSLPSAVYCIEDKMAIDDKYSRREEYRGFTQDFKEKDGYKPDVKIEYVDETGRKLTPKEAFRQLSHRFHGKGSGKMKTERRMKKLDEEALLKKMSSSDTPLGTVALLQEKQKAQKTPYIVLSGSGKSMNANTITK
